Experimental findings from PubChem BioAssay AID2685 (National Center for Advancing Translational Sciences (NCATS), 2010) are described below.

This assay can be described thus: qHTS Assay for Lipid Storage Modulators in Drosophila S3 Cells.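 For cell number change: cells counted by Cell Tracker Red CMTPX staining in the red channel.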 Particulars: BODIPY lipid droplet fluorescence, 18-24 h; for cell number change: measured here: cell count max response, cells fed with added oleic acid. The method, boiled down:
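Drosophila S3 cells loaded with oleic acid (400 uM, as added) and compounds at several concentrations; lipid droplets imaged by 488-nm laser-scanning cytometry, 500–530 nm intensity and object ratio to cell channel. Percent activity normalized to 20 uM Triacsin C.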
On the technique in general: In qHTS, concentration-response curves come from the screen itself.

Setting [1] is: measured here: lipid fluorescence (Fed channel) AC50, cells fed with added oleic acid.
[2] abbreviates: measured here: cell number channel AC50, cells fed with added oleic acid.

Some of the results follow. These are further read-outs of the screen, such as a control signal, another cell line or another target. No call is given for them. Most of these compounds were active or inconclusive in the main read-out, so they are no random draw. The note in brackets gives the kind of curve behind each potency; many fits are weak.

Usually AC50 stands for the midpoint of the concentration-response curve, whichever way the signal moves. Higher therefore signals activity only at high concentration.

As to `C/C(=N\NC(=S)NCCc1ccccc1)c1ccc(O)cc1O`, the cell number change was -13.3%.

For `COc1ccccc1N1CCN(C2CCCN(C(=O)CCc3ccccn3)C2)CC1` (centres undefined), the cell number change is -2.31%. In addition, under setting [1], the AC50 was 32.6 µM [falling, single point].

As to `O=C(O)C1Cc2ccccc2CN1S(=O)(=O)c1ccc2ccccc2c1` (centres undefined), the cell number change amounted to 23.1%. The AC50 under setting [1] was 2.06 µM [falling, partial curve].

For the molecule `O=C(CCc1nc(-c2ccccc2)no1)NC1CCCCCC1`, the cell number change was -8.65%. Moreover, under setting [1], the AC50 is 32.6 µM [falling, single point].

As to `CC(C)(C)c1ccc(SCC(N)=O)cc1`, the AC50 runs as follows: under setting [2], 0.58 µM [falling, full curve]; under setting [1], 0.651 µM [falling, full curve].

As for `O=S(=O)(NC1=NCCC1)c1ccc(F)cc1F`, the AC50 is, setting by setting: under setting [2], 0.0058 µM [rising, full curve, poor fit]; under setting [1], 0.00461 µM [rising, full curve, poor fit].

Turning to `O=C(COC(=O)Cc1ccc(Cl)c(Cl)c1)Nc1ccc2[nH]c(=O)[nH]c2c1`, the cell number change was -30.8%. Under setting [2], the AC50 is 3.66 µM [falling, full curve, poor fit]. Moreover, the AC50 under setting [1] is 2.91 µM [falling, full curve].

Regarding `O=C(O)CSc1nnc(-c2ccco2)o1`, the cell number change amounted to 6.29%.

In the case of `CCCCCn1c(N2CCCC2)nc2c1c(=O)n(C)c(=O)n2C`, the cell number change is -27.2%. For the same molecule, the AC50 under setting [1] was 29.1 µM [rising, single point].

`Cc1nc2c(sc(=S)n2Cc2ccco2)c(=O)n1CC(=O)Nc1ccc(F)cc1`: the AC50 under setting [1] is 20.6 µM [falling, single point].

As to `CC(C)(C)N(Cc1ccccc1)C(=O)CN1C(=O)NC2(CCCCCC2)C1=O`, the cell number change came out at 31.3%. The AC50 under setting [2] is 13 µM [rising, partial curve, poor fit]. Besides, the AC50 under setting [1] was 13 µM [rising, partial curve, poor fit].

With `Cc1nc2cc(NS(=O)(=O)c3cccc4cccnc34)ccc2s1`, the cell number change was -25.8%. For the same molecule, under setting [1], the AC50 was 16.4 µM [falling, partial curve].

As for `CCCCn1c(N)c(N(CC(C)C)C(=O)C2CCN(S(=O)(=O)c3ccc(OCC)cc3)CC2)c(=O)[nH]c1=O`, the cell number change was -17.2%. In addition, the AC50 under setting [2] is 5.8 µM [falling, single point]. In addition, the AC50 under setting [1] was 0.82 µM [falling, partial curve].

On to `CCc1nc(SCC(=O)c2cc(C)ccc2C)n[nH]1`, for which the cell number change came out at 30.8%. Besides, the AC50 under setting [2] was 0.651 µM [rising, full curve, poor fit].

As for `CC/C(CC(C)(C)c1ccccc1)=N\O`, the cell number change is -42.6%. Besides, the AC50 under setting [2] is 1.46 µM [falling, full curve]. The AC50 under setting [1] is 1.46 µM [falling, full curve].

With `CC1(NC(=O)CCc2ccccc2)CCN(CCCc2ccccc2)C1=O` (centres undefined), the cell number change was -3.88%. Moreover, under setting [1], the AC50 is 0.82 µM [rising, single point].

For the molecule `O=C(NCC(c1ccco1)N1CCc2ccccc2C1)c1ccccc1Br` (centres undefined), the cell number change came out at 4.42%. Further, the AC50 under setting [1] was 32.6 µM [falling, single point].

As to `Cc1ccnc(NS(=O)(=O)c2ccc(NC(=O)Cc3ccc(F)cc3)cc2)n1`, the cell number change was -16.3%.

Regarding `O=C(CN1CCN(S(=O)(=O)c2ccc(Cl)cc2)CC1)Nc1ccc2c(c1)CCC2`, the cell number change is -10.6%. Further, the AC50 under setting [1] was 9.2 µM [rising, partial curve].

Regarding `O=C1Cc2cc(S(=O)(=O)N3CCN(c4cccc(Cl)c4)CC3)ccc2N1`, the cell number change worked out at 66%. In addition, under setting [2], the AC50 is 9.2 µM [rising, partial curve, poor fit].

As to `NS(=O)(=O)c1cccc(NC(=O)/C=C/c2cccs2)c1`, the cell number change was -42.3%.

Consider `CCc1cc(C(=O)Nc2cc(S(=O)(=O)N(CC)CC)ccc2N2CCN(C)CC2)sc1C`, for which the cell number change amounted to 25%. The AC50 under setting [1] is 16.4 µM [rising, single point].

As to `C/C(=N\NC(=O)Cc1cccn1C)c1cccs1`, the cell number change amounted to 21.4%.

On to `Cc1nn2c(Nc3ccc(F)cc3)c3c(nc2c1-c1ccccc1)CCC3`, for which the cell number change was -1.37%. Besides, under setting [1], the AC50 is 0.146 µM [falling, full curve, poor fit].

As for `CC(C)(C)c1ccc(C(=O)CSc2ncn[nH]2)cc1`, the half-maximal activity concentration (AC50) under setting [2] is 6.51 µM [falling, single point].

For `CCOc1ccc(-c2nnc3ccc(SCC(=O)Nc4nc5ccc(C)cc5s4)nn23)cc1`, the cell number change is -14.7%. Also, the AC50 under setting [1] is 29.1 µM [falling, single point].

Consider `O=C(/C=C/c1ccc(Cl)cc1Cl)NCCSCc1ccccc1`, for which the cell number change came to 34.4%. Also, under setting [2], the concentration at half-maximal activity (AC50) is 8.2 µM [rising, partial curve]. Also, under setting [1], the concentration at half-maximal activity (AC50) was 4.11 µM [rising, full curve].

For the molecule `CC(=O)CC1(OC(C)=O)C(=O)N(C)c2ccccc21` (centres undefined), the cell number change was -35.5%. Further, the AC50 under setting [2] is 20.6 µM [falling, single point]. Under setting [1], the AC50 was 23.1 µM [falling, single point].

On to `O=C(Nc1ncccc1O)c1ccc(Oc2ccccc2)cc1`, for which the cell number change is 9.68%. Besides, the half-maximal activity concentration (AC50) under setting [1] was 23.1 µM [rising, partial curve].

With `O=C(O)c1cccc(NS(=O)(=O)c2cccc3cccnc23)c1`, the cell number change came to 21%. Under setting [1], the half-maximal activity concentration (AC50) is 0.00517 µM [rising, full curve, poor fit].

With `Cc1cccc(/C=N/NC(=O)Cn2nnnc2N)n1`, the cell number change was -49.7%. Under setting [2], the AC50 was 32.6 µM [falling, single point]. Moreover, under setting [1], the half-maximal activity concentration (AC50) is 29.1 µM [falling, single point].

Turning to `O=C(Cc1ccccc1)NNC(=S)Nc1ccc(Cl)cc1`, the cell number change is -8.86%. Also, under setting [1], the AC50 was 8.2 µM [rising, partial curve].

In the case of `CC(NS(=O)(=O)c1ccc(Cl)cc1)C(=O)NCc1ccco1` (centres undefined), the cell number change is -108%. In addition, under setting [2], the AC50 was 29.1 µM [falling, single point]. In addition, the AC50 under setting [1] is 29.1 µM [falling, single point].

For the molecule `Cc1cc(NC(=O)c2sc3ccccc3c2O)no1`, the cell number change was 24.4%. The AC50 under setting [2] was 5.8 µM [rising, single point].

On to `Cn1cnc(S(=O)(=O)Nc2cc(C(F)(F)F)ccc2N2CCOCC2)c1`, for which the cell number change was -40.8%. Besides, the concentration at half-maximal activity (AC50) under setting [2] is 10.3 µM [falling, single point].

As to `Nc1cc(N)nc(SCC(=O)Nc2ccc(Br)cc2Cl)n1`, the cell number change came out at 28.2%. Also, the AC50 under setting [2] was 1.3 µM [rising, full curve, poor fit].

With `CC(c1nc2scc(-c3ccccc3)c2c(=O)[nH]1)N1CCN(CC(=O)NC2CC2)CC1` (centres undefined), the AC50 under setting [1] was 6.51 µM [falling, single point].

Take `COc1ccc(-c2ccc3c(c2)S(=O)(=O)c2cccc(C(=O)NCc4ccccc4Cl)c2C3=O)cc1OC`: the cell number change is -82.4%. Moreover, the AC50 under setting [2] was 4.61 µM [falling, full curve]. Also, the AC50 under setting [1] is 23.1 µM [falling, partial curve].

Turning to `O=C(Nc1ccc2c(c1)OCCO2)C1CCCN(S(=O)(=O)c2cccc3nsnc23)C1` (centres undefined), the AC50 under setting [2] is 2.06 µM [rising, partial curve, poor fit].

Turning to `Cc1ccc(S(=O)(=O)Nc2nc3ccc(S(C)(=O)=O)cc3s2)cc1`, the cell number change is -7.87%. Besides, the AC50 under setting [1] is 2.31 µM [falling, full curve].

For `O=C(COC(=O)COc1cccc(Br)c1)Nc1c(Cl)cccc1Cl`, the cell number change was -0.627%. Moreover, under setting [1], the AC50 is 2.59 µM [rising, full curve].

Take `CCN(C(=O)CSc1nnc(COc2cccc(C)c2)o1)c1nc(C)cs1`: the cell number change was -2.63%. Further, the AC50 under setting [1] was 5.62 µM [rising, single point].

Take `O=C1CCCC2=C1C(c1cn(-c3ccccc3)nc1-c1cccs1)c1c([nH]c(=O)[nH]c1=O)N2` (centres undefined): the cell number change amounted to 1.36%. The AC50 under setting [1] was 0.103 µM [rising, full curve, poor fit].

With `O=C(NCCCn1ccnc1)c1cc(S(=O)(=O)N2CCOCC2)ccc1F`, the cell number change was -32.7%.

On to `CCOc1ccc(C(=O)C2CCN(CC(=O)Nc3ccccc3N3CCOCC3)CC2)cc1`, for which the cell number change came to 35.2%. In addition, the AC50 under setting [2] is 1.84 µM [rising, partial curve]. Besides, under setting [1], the half-maximal activity concentration (AC50) was 0.651 µM [rising, single point].

Turning to `C=CCOc1ccc(CNCC2CCCO2)cc1` (centres undefined), the cell number change amounted to 39.8%. Moreover, under setting [2], the AC50 is 14.6 µM [rising, partial curve]. Under setting [1], the AC50 is 29.1 µM [falling, single point].

`Cc1cc(NC(=O)CSc2nnc3c4c(C)c(C)sc4ncn23)no1`: the cell number change was determined as 11.2%. Also, the AC50 under setting [2] was 0.116 µM [falling, single point].

`CCOC(=O)C1CCCN(C(=O)C2CCN(S(=O)(=O)c3ccc4ccccc4c3)CC2)C1` (centres undefined): the cell number change is -1.66%. Also, the AC50 under setting [1] was 14.6 µM [falling, partial curve].

In the case of `CCC1(C(=O)OC)NC(c2ccco2)C2C(=O)N(c3ccc(C)cc3)C(=O)C21` (centres undefined), the AC50 under setting [1] was 0.00461 µM [falling, full curve, poor fit].

As to `O=S(=O)(N1CCCCC1)N1CCNCC1`, the cell number change came to 13.8%. For the same molecule, the AC50 under setting [1] was 23.1 µM [falling, single point].

For the molecule `COC(=O)c1ccc(Nc2nc(N3CCOCC3)nc(N3CCOCC3)n2)cc1`, the cell number change turned out to be 0.295%. Further, the AC50 under setting [1] was 0.58 µM [rising, single point].

For `CCOc1cc(C(=O)N(C)Cc2cc3ccccc3[nH]c2=O)cc(OCC)c1OCC`, the cell number change stood at 127%. In addition, the AC50 under setting [2] is 0.411 µM [rising, single point]. Besides, the AC50 under setting [1] was 0.651 µM [rising, single point].

Consider `Cc1cc(NC(=O)/C=C/c2ccccc2Cl)no1`, for which the cell number change was -20.8%. Besides, the AC50 under setting [2] was 2.06 µM [rising, partial curve]. Besides, under setting [1], the half-maximal activity concentration (AC50) is 29.1 µM [falling, single point].

As for `COCc1cc(C)nc(N/N=C/c2ccc(-c3cc(C(=O)O)ccc3Cl)o2)c1C#N`, the cell number change was found to be 4.26%.

Turning to `COc1ccc(NC(=S)NC(=O)c2ccc(Br)o2)cc1`, the cell number change was found to be 13.3%. For the same molecule, under setting [1], the AC50 was 6.31 µM [falling, single point].

Consider `CCOc1ccccc1CN1CCN(Cc2ccc3cc(F)ccc3n2)CC1CCO` (centres undefined), for which the cell number change was -22.2%. In addition, the AC50 under setting [1] was 29.1 µM [falling, single point].

Regarding `CC1CCc2ccc(F)cc2N1S(=O)(=O)c1cccs1` (centres undefined), the cell number change amounted to 2.25%. Besides, under setting [2], the AC50 was 0.184 µM [falling, full curve, poor fit]. The AC50 under setting [1] is 6.51 µM [falling, single point].

Consider `O=S(=O)(c1cccc2nsnc12)N1CCc2ccccc21`, for which the cell number change stood at 46.9%. For the same molecule, under setting [2], the AC50 was 18.4 µM [rising, single point]. Besides, the half-maximal activity concentration (AC50) under setting [1] was 29.1 µM [falling, single point].
